{"source": "patent US20190241895", "key": {"[1]": {"tested_on": "secretory immunoglobulin A (sIgA) (Homo sapiens)", "assay": "pull-down", "conditions": "primer-bound SA beads control; purified native protein; protein details: MP Biomedicals Cappel Products cat 55905; label: 5' biotin; single-stranded DNA"}, "[2]": {"tested_on": "secretory immunoglobulin A (sIgA) in saliva (Homo sapiens)", "assay": "pull-down", "conditions": "primer-bound SA beads control, saliva; protein in an extract; protein details: human saliva specimen, 90% final; label: 5' biotin; single-stranded DNA"}}, "note": "Construct, isoform or probe ends are uncertain for at least one entry. A negative result means that nothing was seen under these conditions. For some assays here: Where cells or extracts were used, other partners may take part."}
{"sequence": "GGATACCTTAACGCCGCCTATTG [biotinylated primer]", "values": [{"measurement": "binding result", "setting": "[1]", "value": "no binding"}, {"measurement": "binding result", "setting": "[2]", "value": "no binding"}]}
